{"source": "patent US6789546B2", "about": "“Filters for preventing or reducing tobacco smoke-associated injury in the aerodigestive tract of a subject” (Technion Research & Development Foundation Ltd., priority 2001, dated 2004)", "key": {"oral peroxidase (OPO)": {"system": "oral peroxidase (OPO)", "type": "biochemical, human", "conditions": "saliva exposed 2 h to 1 mM ascorbate or 100 μM FeCl3"}, "lymphocytes": {"system": "lymphocytes", "test": "Lymphocyte survival by Trypan Blue exclusion assay", "type": "cell-based, human", "conditions": "TS in the absence of saliva, 1 mM agent, 80 min (FIG. 24)", "experimental": "Saliva Collection: Saliva was collected from healthy subjects, 3 males and 3 females ranging from 21-47 years of age, under non-stimulatory conditions in a quiet room during the morning between 8 am and noon. Saliva collection was performed at least 1 h after eating by spitting into a recipient for 10 minutes, as previously described (43). Following collection, saliva was immediately centrifuged at 800×g for 10 min at 4° C. to remove cells and cell debris and the resulting supernatant was used for biochemical analyses.\nLymphocyte Isolation: Blood from 10 consenting, healthy, non-smoking subjects, 5 males and 5 females ranging from 18-55 years of age, was drawn into EDTA-containing vacutainers. Lymphocytes were isolated by Ficoll-Hypaque (Sigma) gradient centrifugation according to the manufacturer's instructions and lymphocytes were suspended at 10^7 cells/ml PBS (Beit-Ha'emek Industries, Israel), and used immediately in experiments.\nA reproducible vacuum was created in the flask and upon application of vacuum for 5 s, 80-100 ml of TS from the lit cigarette was drawn into the flask. […] Saliva treatment of lymphocytes was performed by suspending these in PBS supplemented with 30% (v/v) saliva. […]\nMeasurement of Lymphocyte Survival: Lymphocyte viability was assessed by Trypan Blue exclusion assay."}}, "note": "At least one compound was matched to its structure with a doubt left.", "data": [{"smiles": "O=C1O[C@H]([C@@H](O)CO)C(O)=C1O", "note": "[ascorbate]", "values": [{"measurement": "inhibition of OPO activity", "setting": "oral peroxidase (OPO)", "value": "did not inhibit OPO activity"}]}, {"smiles": "CC(=O)N(O)CCCCCNC(=O)CCC(=O)N(O)CCCCCNC(=O)CCC(=O)N(O)CCCCCN", "note": "[deferoxamine]", "values": [{"measurement": "modulatory effect on the lethal effect of TS on lymphocytes", "setting": "lymphocytes", "value": "Neither ascorbate nor deferoxamine were found to have any modulatory effect"}]}]}
